Reference: PubChem BioAssay AID652054 (National Center for Advancing Translational Sciences (NCATS), 2013)
The whole screen tested about 360,000 compounds, of which about 9,100 (2.5%) were called active. The shares of active, inactive and inconclusive entries below differ from those in the screen. No stated cut-off is given here; in the data, active means max response below about -50%; inconclusive means no clear call, values can overlap the other calls; inactive means above that.

The chains behind the UniProt entries cited, without tags or fusion partners.
UniProt P35462, whole entry, looked up: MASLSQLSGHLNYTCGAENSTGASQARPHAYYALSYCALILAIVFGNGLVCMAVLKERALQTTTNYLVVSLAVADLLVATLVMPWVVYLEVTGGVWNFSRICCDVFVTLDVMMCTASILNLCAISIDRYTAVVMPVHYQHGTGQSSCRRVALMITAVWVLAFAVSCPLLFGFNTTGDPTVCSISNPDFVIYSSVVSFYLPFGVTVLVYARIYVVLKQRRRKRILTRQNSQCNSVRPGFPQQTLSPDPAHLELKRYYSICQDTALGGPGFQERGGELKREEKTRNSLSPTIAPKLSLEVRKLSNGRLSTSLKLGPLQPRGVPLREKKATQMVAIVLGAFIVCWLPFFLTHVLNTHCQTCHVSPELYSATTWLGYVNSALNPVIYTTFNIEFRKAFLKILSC

Each compound was assayed against D(3) dopamine receptor (Homo sapiens) (UniProt P35462) (assay: qHTS of D3 Dopamine Receptor Antagonist: qHTS). Details: D3R cells, DiscoveRx beta-arrestin luminescence, antagonist mode; stronger effect = lower value.
Method in brief: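 Cells expressing the human receptor were seeded at 1500 cells/well, incubated overnight at 37 degrees C in 5% CO2, then exposed to library compounds with dopamine controls for 90 minutes at 37 degrees C before luminescent detection.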
On the % scale 0 is the no-effect control and ±100 the full control effect.

SMILES	max response, negative = inhibition
NS(=O)(=O)c1cc(C(=O)N2CCc3ccccc32)c(Cl)cc1Cl	inconclusive: -30.2%
COC(CNC(=O)c1ccc(N2CCCC2=O)cc1)OC	active: -50.9%
O=C(C1=C[C@H](c2ccc(C(F)(F)F)cc2)C[C@H](OCCCCO)O1)N1CCN(Cc2ccc3c(c2)OCO3)CC1	inconclusive: -47.9%
C[C@H](CO)N1C[C@H](C)[C@@H](CN(C)C(=O)C2CC2)OCc2cnnn2CCCC1=O	inactive: 25.1%
COc1ccc(-c2nc3c(c(=O)[nH]c(=O)n3Cc3ccccc3)n2Cc2ccccc2)cc1	inactive: 35.9%
N#Cc1cccc(NC(=O)c2nc(-c3ccccc3)n(-c3ccccc3)n2)c1	inconclusive: -31.6%
O=[N+]([O-])c1ccc(/C=C/C2=NN(c3ccccc3)C(c3ccco3)C2)o1 (stereo not drawn)	inconclusive: -35%
CCCN1CCN(CCCNC(=O)c2cc3c(s2)-c2c(C)cccc2OC3)CC1	inconclusive: -48.7%
Cn1c(Cc2cccc3ccccc23)nnc1SCc1ccc([N+](=O)[O-])cc1	inconclusive: -30.9%
COc1ccc(Cc2nnc(NC(=O)C3CC(=O)N(c4ccccc4C)C3)s2)cc1OC (stereo not drawn)	active: -64.4%
CCO[C@H]1OC(C(=O)NC2CC2)=C[C@@H](c2ccc(Br)cc2)[C@@H]1CCCO	inconclusive: -33.9%
O=C(CCNC(=O)c1ccccc1Cl)Nc1nc2ccccc2s1	inactive: -5.3%
CCN(CC(=O)Nc1ccc(NC(C)=O)cc1)C(=O)/C=C/c1ccc(C)o1	inactive: 0.915%
CCOc1cc(N2CCOCC2)c(OCC)cc1NC(=O)Cn1cnnn1	inactive: -11.7%
Nc1c(S(=O)(=O)c2cccs2)c2nc3ccccc3nc2n1CC1CCCO1 (stereo not drawn)	inconclusive: -31%
O=C(NN1C(=O)c2ccccc2NC1c1ccc([N+](=O)[O-])o1)c1ccc([N+](=O)[O-])cc1 (stereo not drawn)	active: -61.5%
COC(=O)[C@]1(Cc2ccccc2)N[C@H](CN(C)C(=O)Nc2ccc(OC)cc2)[C@@H]2C(=O)N(C)C(=O)[C@@H]21	active: -52.7%
COc1cccc(C2=CC(=O)C[C@H](c3ccc(F)cc3)C2)c1OC	inactive: -8.44%
COc1ccc(-c2oc3ncnc(NCCCN4CCOCC4)c3c2-c2ccc(OC)cc2)cc1	active: -94.2%
Cc1cc(N)ccc1N1CCCC1	active: -54.8%
CC(C)OC(=O)C(CC(=O)O)NCc1ccccc1 (stereo not drawn)	inconclusive: -45.9%
CC1(C)CCSC(/C=C/c2ccccc2)=N1	active: -74.9%

SMILES	max response, negative = inhibition
COc1ccc(CCN(C(=O)c2ccc(F)cc2)C2=CC3CCC(C2)N3C)cc1OC (stereo not drawn)	active: -56%
CCOc1ccc(NC(=O)CSc2ccc3nnc(-c4cccnc4)n3n2)cc1	inactive: -6.92%
Cc1ccc(N2CCN(CCc3nc4cc(NC(=O)c5ccco5)ccc4n3C)CC2)cc1	inconclusive: -35.1%
Nc1ccncc1N	inactive: 0%
CCCN(C(=O)C(NC(=O)c1ccccc1)C(C)C)c1c(N)n(Cc2ccccc2)c(=O)[nH]c1=O (stereo not drawn)	inactive: -17.9%
CC(C)=CCN1CCN(C/C(Cl)=C/c2ccccc2)CC1CCO (stereo not drawn)	active: -62.8%
CC(C)n1c(SCC(N)=O)nc2c1c(=O)n(C)c(=O)n2C	inactive: 48.6%
O=C(NC(c1ccc(Cl)cc1)c1cnccn1)C1CCN(CCOc2ccc(F)cc2)CC1 (stereo not drawn)	inconclusive: -36%
COc1cc(/C=N/Nc2ccccc2[N+](=O)[O-])ccc1OC(=O)c1ccccc1F	inactive: 3.7%
CSc1ccc(NC(=O)C2(C)CCN2C(=O)C2(c3ccccc3)CC2)cc1 (stereo not drawn)	inconclusive: -36.9%
O=[N+]([O-])c1cc(C(F)(F)F)cc([N+](=O)[O-])c1Sc1n[nH]c(C(F)(F)F)n1	inconclusive: -36.4%
Cc1ccc(C2C3=C(CC(C)(C)CC3=O)Nc3onc(C)c32)cc1 (stereo not drawn)	inconclusive: -31.4%
CC(C)Cc1nnc(NC(=O)CN2C(=O)C3CCCCC3C2=O)s1 (stereo not drawn)	inactive: -13.7%
O=C(CCN1CCN(Cc2ccccc2)CC1)Nc1cccc(Br)c1	inconclusive: -33.3%
OC(c1ccc(Cl)c(Cl)c1)c1ncc(-c2ccccc2Cl)[nH]1 (stereo not drawn)	inconclusive: -30.6%
O=C(CN1CCOCC1)Nc1ccc(S(=O)(=O)N2CCCCCC2)cc1	inactive: 4.08%
COc1ccc(NC(=O)C2CCN(c3cc(C)nc(-c4ccccc4)n3)CC2)cc1	inconclusive: -37%
O=C(CCC(=O)N1CCc2ccccc21)Nc1ccccc1	inconclusive: -42.7%
C=CCOC(=O)Nc1nc(CCNC(=O)OCc2ccccc2)c(C(=O)O)s1	inactive: -0.0138%
CN(C)C(CNC(=O)c1cccc(C(F)(F)F)c1)c1ccco1 (stereo not drawn)	inconclusive: -30.7%

Part of the list above in a different format.
SMILES | max response, negative = inhibition
COc1ccc(-c2oc3ncnc(NCCCN4CCOCC4)c3c2-c2ccc(OC)cc2)cc1 | active: -94.2%
Cc1cc(N)ccc1N1CCCC1 | active: -54.8%
CC(C)OC(=O)C(CC(=O)O)NCc1ccccc1 (stereo not drawn) | inconclusive: -45.9%
CC1(C)CCSC(/C=C/c2ccccc2)=N1 | active: -74.9%
COc1ccc(CCN(C(=O)c2ccc(F)cc2)C2=CC3CCC(C2)N3C)cc1OC (stereo not drawn) | active: -56%
CCOc1ccc(NC(=O)CSc2ccc3nnc(-c4cccnc4)n3n2)cc1 | inactive: -6.92%
Cc1ccc(N2CCN(CCc3nc4cc(NC(=O)c5ccco5)ccc4n3C)CC2)cc1 | inconclusive: -35.1%
Nc1ccncc1N | inactive: 0%
CCCN(C(=O)C(NC(=O)c1ccccc1)C(C)C)c1c(N)n(Cc2ccccc2)c(=O)[nH]c1=O (stereo not drawn) | inactive: -17.9%
CC(C)=CCN1CCN(C/C(Cl)=C/c2ccccc2)CC1CCO (stereo not drawn) | active: -62.8%
CC(C)n1c(SCC(N)=O)nc2c1c(=O)n(C)c(=O)n2C | inactive: 48.6%
O=C(NC(c1ccc(Cl)cc1)c1cnccn1)C1CCN(CCOc2ccc(F)cc2)CC1 (stereo not drawn) | inconclusive: -36%
COc1cc(/C=N/Nc2ccccc2[N+](=O)[O-])ccc1OC(=O)c1ccccc1F | inactive: 3.7%
